Laboratory results reported in patent US20160039895A1 (published 2016).
These are yes or no findings as the source states them, for the method shown. Some entries that bind do so weakly or less than the wild type.

The chains behind the UniProt entries cited, without tags or fusion partners. Where a name states a change or a piece, a line headed by the entry shows the natural chain unless it says otherwise. Residues count along the entry.
UniProt P35968: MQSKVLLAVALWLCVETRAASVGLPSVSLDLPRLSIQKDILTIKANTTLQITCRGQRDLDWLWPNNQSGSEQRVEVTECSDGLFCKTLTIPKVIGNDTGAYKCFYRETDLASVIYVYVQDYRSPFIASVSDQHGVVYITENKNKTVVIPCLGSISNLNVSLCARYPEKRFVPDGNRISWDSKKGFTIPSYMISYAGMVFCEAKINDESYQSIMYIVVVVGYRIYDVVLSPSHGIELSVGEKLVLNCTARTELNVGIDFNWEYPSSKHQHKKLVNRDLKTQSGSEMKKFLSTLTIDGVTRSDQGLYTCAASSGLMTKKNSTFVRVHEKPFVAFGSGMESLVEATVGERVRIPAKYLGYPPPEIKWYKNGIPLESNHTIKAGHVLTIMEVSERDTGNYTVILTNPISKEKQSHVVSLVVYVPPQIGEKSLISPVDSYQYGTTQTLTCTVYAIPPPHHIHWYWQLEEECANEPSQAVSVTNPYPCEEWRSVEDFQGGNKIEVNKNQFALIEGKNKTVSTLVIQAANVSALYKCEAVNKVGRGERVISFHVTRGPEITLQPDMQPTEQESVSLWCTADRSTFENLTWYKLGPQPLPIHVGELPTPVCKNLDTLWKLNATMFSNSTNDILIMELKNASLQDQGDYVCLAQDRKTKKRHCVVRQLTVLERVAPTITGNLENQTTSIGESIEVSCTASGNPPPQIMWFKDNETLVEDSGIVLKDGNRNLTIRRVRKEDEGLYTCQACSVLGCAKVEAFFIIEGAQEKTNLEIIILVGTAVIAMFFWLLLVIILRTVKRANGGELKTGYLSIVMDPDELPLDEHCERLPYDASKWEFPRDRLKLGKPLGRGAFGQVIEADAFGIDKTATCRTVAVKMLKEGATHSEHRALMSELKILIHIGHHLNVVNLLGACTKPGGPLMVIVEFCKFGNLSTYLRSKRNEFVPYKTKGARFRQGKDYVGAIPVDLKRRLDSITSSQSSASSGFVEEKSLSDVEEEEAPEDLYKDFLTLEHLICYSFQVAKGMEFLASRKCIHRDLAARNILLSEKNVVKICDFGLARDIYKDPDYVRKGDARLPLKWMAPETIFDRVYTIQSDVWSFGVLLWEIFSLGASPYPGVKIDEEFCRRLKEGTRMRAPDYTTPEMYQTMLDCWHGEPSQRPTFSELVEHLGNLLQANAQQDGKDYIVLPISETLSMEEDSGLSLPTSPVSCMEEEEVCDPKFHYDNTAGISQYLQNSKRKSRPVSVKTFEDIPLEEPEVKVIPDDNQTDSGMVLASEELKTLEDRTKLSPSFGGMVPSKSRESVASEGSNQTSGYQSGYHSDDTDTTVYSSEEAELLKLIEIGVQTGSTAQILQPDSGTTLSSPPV
human VEGFR2 on cells (PAE/KDR cells, HUVEC): residues 20-1356 of P35968
recombinant human VEGFR2 extracellular domain: residues 20-764 of P35968

B1: scVEGF-mA (designed binder)
chain: EVAKAMDVYQKSYCHPIETLVDILQEYPDEIGYIFKPSCVPLMRCGGCCNDAGLECVPTEESNITMQIMRIKPYQGQHIGEMSFLQHNKCECRPKKDGSTSGSGKSSEGKGEVVKFMDVYQRSYCHPIETLVDIFQEYPDKIEYAFKPSCVPLMRCGGCCNNEGLECVPTEESNITMQITRAKPHQGQHIGEMSFLQHNKCECRPKKD
notes: Soluble protein from P. pastoris with C-terminal hexahistidine tag, with or without N-terminal FLAG tag (tags not included in the parts); also called scVEGFmut-A
B2: scVEGF-mE (designed binder)
chain: EVVKAMDVYQRSYCHPIETLVDILQEYPDEIGYIFKPSCVPLMRCGGCCNGAGLECVPTEESNITMQIMRIKPHRGQHIGEMSFLQHNKCECRPKKDGSTSGSGKSSEGKGEVVRFMDVYQRSYCHPIETLVDIFQEYPNEIEYAFKPSCVPLMRCGGCCNNEGLECVPTEESNITMQIMRAKPHQGQHIGEMSFLQHNKCECRPKKD
notes: Soluble protein with C-terminal hexahistidine tag, with or without N-terminal FLAG tag (tags not included in the parts); also called scVEGFmut-E
B3: scVEGF-mJ (designed binder)
chain: EIVKARDVYQRSYCHPIETLVDILQEYPDEIEYIFKPSCVPLMRCGGCCNDAGLECVPTEESNITMQIMRIKPYQGHHIGEMSFLQHNKCECRPKKDGSTSGSGKSSEGKGEVVKFMDVYQRSYCHPIETLVDIFQEYPDEIEYAFKPSCVPLMRCGGCCNNEGLECVPTEESNITMQIMRAKPHQGQHTGEMSFLQHNKCECRPKKD
notes: Soluble protein with C-terminal hexahistidine tag, with or without N-terminal FLAG tag (tags not included in the parts); also called scVEGFmut-J
B4: scVEGF-mM (designed binder)
chain: EVVKAMDVYRRSYCHPVETSVDILQEYPDEIEYIFKPSCVPLMRCGGCCNDAGLECVPTEESNTTMQIMRIKPYRGQHIGEMSFLQHNKCECRPKKDGSTSGSGKSSEGKGEVVKFMDVYQRSYCHPIETLVDIFQEYPDEIEYAFKPSCVSLMRCGGCCNNEGLECVPTEESNITVQIMGAKPHQGQHIGEMSFLQHNKCECRPKKD
notes: Soluble protein with C-terminal hexahistidine tag, with or without N-terminal FLAG tag (tags not included in the parts); also called scVEGFmut-M
B5: scVEGFrgd-7H (designed binder)
chain: EVVKAMDVYQRSYCHPIETLVDIFQEYPDEIEYIFKPSCVPLMRCGGCCNDAGLECVPTEESNITMQIMRIKPHQGQHIGEMSFLQHNKCECRPKKDGSTSGSGKSSEGKGEVVKFMDVYQRSYCHPIETLVDIFQEYPDEIEYAFKPSCVPLMRCGGCCNDEGLECVPTEESNITMQIMRPGGRGDSAYHIGEMSFLQHNKCECRPKKDTR
notes: Soluble protein from P. pastoris with C-terminal hexahistidine tag, with or without N-terminal FLAG tag; also called scVEGF-7H
B6: scVEGFrgd-7P (designed binder)
chain: EVVKAMDVYQRSYCHPIETLVDIFQEYPDEIEYIFKPSCVPLMRCGGCCNDAGLECVPTEESNITMQIMRIKPHQGQHIGEMSFLQHNKCECRPKKDGSTSGSGKSSEGKGEVVKFMDVYQRSYCHPIETLVDIFQEYPDEIEYAFKPSCVPLMRCGGCCNDEGLECVPTEESNITMQIMRPASRGDSPPHIGEMSFLQHNKCECRPKKDTR
notes: Soluble protein from P. pastoris with C-terminal hexahistidine tag, with or without N-terminal FLAG tag; also called scVEGF-7P
B7: scVEGFrgd-7I (designed binder)
chain: EVVKAMDVYQRSYCHPIETLVDIFQEYPDEIEYIFKPSCVPLMRCGGCCNDAGLECVPTEESNITMQIMRIKPHQGQHIGEMSFLQHNKCECRPKKDGSTSGSGKSSEGKGEVVKFMDVYQRSYCHPIETLVDIFQEYPDEIEYAFKPSCVPLMRCGGCCNDEGLECVPTEESNITMQIMRPSVRRGDSPASHIGEMSFLQHNKCECRPKKDTR
notes: Soluble protein from P. pastoris with C-terminal hexahistidine tag, with or without N-terminal FLAG tag; also called scVEGF-7I
B8: scVEGFrgd-7B-A (designed binder)
chain: EVVKAMDVYQRSYCHPIETLVDILQEYPDEIEYIFKPSCVPLMRCGGCCNDAGLECVPTEESNITMQVMRIKPYRGQHIGEMSFLQHNKCECRPKKDGSTSGSGKSSEGKGEVVKFMDVYQRSYCHPIETLVDIFQEYPDEIEYAFKPSCVPLMRCGGCCNNEGLECVPTEESNITMQIMRPHDRGDAGVHIGEMSFLQHNKCECRPRKD
B9: scVEGFrgd-7B-C (designed binder)
chain: EVVKAMDVYQGSYCHPIETLVDILQEYPDEIEYIFKPSCVPLMRCGGCCNNAGLECVPTEESNITMQIMRIKPYQGQHIGEMSFLQHNKCECRPKKGGSTSGSGKSSEGKGEVVKFMDVYQRSYCHPIETLVDIFQEYPDEIEYAFKPSCVPLMRCGGCCNHEGLECVPTEESNITMRIMRPHDRGDAGVHIGEMSFLQHNKCECRPKRD
B10: scVEGFrgd-7B-K (designed binder)
chain: EVVKAMDVYQRSYCHPIETLVDILQEYPDEIEYIFKPSCVPLMRCGGCCNDAGLECVPTEESNITMQIMRIKPYQGQHIGEMSFLQHNKCECRPKKDGSTSGSGKSSEGKGEVVRFMDVYQRSYCHPIETLVDIFQEYPDEIEYAFKPSCVPLMRCGGCCNHEGLECVPTEESNITMQIMRPHDRGDAGVHIGEMSFLQHNKCECRPKED

Columns and labels:
[1] = target: recombinant human VEGFR2 extracellular domain (human) (UniProt P35968); test: SPR (BIAcore), VEGFR2 immobilized
[2] = target: human VEGFR2 on cells (PAE/KDR cells, HUVEC) (human) (UniProt P35968); test: flow cytometry titration on PAE/KDR cells
[3] = target: recombinant human VEGFR2 extracellular domain (human) (UniProt P35968); test: yeast surface display, individual clones binding VEGFR2
[4] = target: porcine αvβ3 integrin on PAE cells (porcine); test: flow cytometry titration on PAE cells

Binder | binding [1] | binding [2] | binding [3] | binding [4]
B1 | binds | binds | binds | 
B2 | binds | binds | binds | 
B3 | binds | binds | binds | 
B4 | binds |  | binds | 
B5 |  |  |  | binds
B6 |  |  |  | binds
B7 |  |  |  | binds
B8 |  |  | binds | 
B9 |  |  | binds | 
B10 |  |  | binds | 
